{"source": "PubChem BioAssay AID504744 (Drosophila RNAi Screening Center, 2011)", "purpose": "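Find genes whose loss alters insulin-driven dAkt phosphorylation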 (primary screen)", "system": "Drosophila Kc167 cells", "knock-down reagent": "long dsRNA against Drosophila genes, 250 ng dsRNA per well of a 384-well plate", "timing": "3 days of knock-down, then overnight serum-free starvation before stimulation", "treatment": "bovine insulin at 387 nM for 10 minutes after 12 h without serum", "measurement": "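In-cell antibody fluorescence for phospho-dAkt in each well over DNA-dye signal, with log2 residuals expressed as z-scores adjusted for cell count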", "active means": "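Under insulin, a gene counts as a hit if the average z-score of two replicates lies above 2.5 or below -2.5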", "note": "In all, the deposit lists about 23,000 reagents; below is an unselected part of those with a known target gene and a result. Over the whole deposit, 98 (0.43%) got an active call. 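Only hit calls are given; the phospho-dAkt signals, z-scores and hit direction were not deposited.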 A plus sign joins genes that one reagent is predicted to hit. No sequences are given here."}
{"predicted target": "VhaAC45RP (VhaAC45-related protein)", "amplicon": "DRSC15423", "activity call": "inactive"}
{"predicted target": "CG9760", "amplicon": "DRSC11101", "activity call": "inactive"}
{"predicted target": "GstT3 (Glutathione S transferase T3)", "amplicon": "DRSC20541", "activity call": "inactive"}
{"predicted target": "Edg91 (Ecdysone-dependent gene 91)", "amplicon": "DRSC16657", "activity call": "inactive"}
{"predicted target": "Sfxn2 (Sideroflexin 2)", "amplicon": "DRSC10718", "activity call": "inactive"}
{"predicted target": "CG5080", "amplicon": "DRSC00677", "activity call": "inactive"}
{"predicted target": "Sply (Sphingosine-1-phosphate lyase)", "amplicon": "DRSC07299", "activity call": "inactive"}
{"predicted target": "CG1288", "amplicon": "DRSC12538", "activity call": "inactive"}
{"predicted target": "Cyp9b1 (Cytochrome P450 9b1)", "amplicon": "DRSC07389", "activity call": "inactive"}
{"predicted target": "path (pathetic)", "amplicon": "DRSC10361", "activity call": "inactive"}
{"predicted target": "Hip1 (Huntingtin interacting protein 1)", "amplicon": "DRSC09812", "activity call": "inactive"}
{"predicted target": "Vha44 (Vacuolar H[+] ATPase 44kD subunit)", "amplicon": "DRSC07572", "activity call": "inactive"}
{"predicted target": "Vha44 (Vacuolar H[+] ATPase 44kD subunit)", "amplicon": "DRSC07573", "activity call": "inactive"}
{"predicted target": "Set2 (SET domain containing 2)", "amplicon": "DRSC19765", "activity call": "inactive"}
{"predicted target": "CG31296", "amplicon": "DRSC13092", "activity call": "inactive"}
{"predicted target": "CG17732", "amplicon": "DRSC10283", "activity call": "inactive"}
{"predicted target": "Rae1", "amplicon": "DRSC04577", "activity call": "inactive"}
{"predicted target": "CG13813", "amplicon": "DRSC10068", "activity call": "inactive"}
{"predicted target": "CG5071", "amplicon": "DRSC15710", "activity call": "inactive"}
{"predicted target": "CG5071", "amplicon": "DRSC22570", "activity call": "inactive"}
{"predicted target": "E(spl)m7-HLH (Enhancer of split m7, helix-loop-helix)", "amplicon": "DRSC16696", "activity call": "inactive"}
{"predicted target": "CG14471 (retired record)", "amplicon": "DRSC04865", "activity call": "inactive"}
{"predicted target": "CG10598", "amplicon": "DRSC19358", "activity call": "inactive"}
{"predicted target": "Scgbeta (Sarcoglycan beta)", "amplicon": "DRSC15854", "activity call": "inactive"}
{"predicted target": "CG8343", "amplicon": "DRSC04905", "activity call": "inactive"}
{"predicted target": "mtTFB1 + Ccdc56", "amplicon": "DRSC10809", "activity call": "inactive"}
{"predicted target": "RhoGAP92B (Rho GTPase activating protein at 92B)", "amplicon": "DRSC14507", "activity call": "inactive"}
{"predicted target": "RhoGAP92B (Rho GTPase activating protein at 92B)", "amplicon": "DRSC15637", "activity call": "inactive"}
{"predicted target": "Rpt4R (Regulatory particle triple-A ATPase 4-related)", "amplicon": "DRSC10791", "activity call": "inactive"}
{"predicted target": "NK7.1", "amplicon": "DRSC16755", "activity call": "inactive"}
{"predicted target": "AP-1gamma (Adaptor Protein complex 1, gamma subunit)", "amplicon": "DRSC18433", "activity call": "inactive"}
{"predicted target": "TBC1d7 + mRpS24", "amplicon": "DRSC14611", "activity call": "inactive"}
{"predicted target": "ReepB (Receptor expression enhancing protein B)", "amplicon": "DRSC07150", "activity call": "inactive"}
{"predicted target": "CG31910 + snoRNA:Me28S-G2743 (retired record)", "amplicon": "DRSC00946", "activity call": "inactive"}
{"predicted target": "eIF2Bepsilon (eukaryotic translation initiation factor 2B subunit epsilon)", "amplicon": "DRSC18769", "activity call": "inactive"}
{"predicted target": "Nplp2 (Neuropeptide-like precursor 2)", "amplicon": "DRSC09824", "activity call": "inactive"}
{"predicted target": "Dap160 (Dynamin associated protein 160)", "amplicon": "DRSC03313", "activity call": "inactive"}

Entries above whose target name begins with E or e (3):
{"predicted target": "Edg91 (Ecdysone-dependent gene 91)", "amplicon": "DRSC16657", "activity call": "inactive"}
{"predicted target": "E(spl)m7-HLH (Enhancer of split m7, helix-loop-helix)", "amplicon": "DRSC16696", "activity call": "inactive"}
{"predicted target": "eIF2Bepsilon (eukaryotic translation initiation factor 2B subunit epsilon)", "amplicon": "DRSC18769", "activity call": "inactive"}

Continued:
{"predicted target": "CG6813", "amplicon": "DRSC16122", "activity call": "inactive"}
{"predicted target": "CG14492", "amplicon": "DRSC06463", "activity call": "inactive"}
{"predicted target": "CG34290", "amplicon": "DRSC13660", "activity call": "inactive"}
{"predicted target": "Np (Notopleural)", "amplicon": "DRSC06089", "activity call": "inactive"}
{"predicted target": "Np (Notopleural)", "amplicon": "DRSC07094", "activity call": "inactive"}
{"predicted target": "Np (Notopleural)", "amplicon": "DRSC22421", "activity call": "inactive"}
{"predicted target": "CG30414", "amplicon": "DRSC04372", "activity call": "inactive"}
{"predicted target": "to (takeout)", "amplicon": "DRSC17086", "activity call": "inactive"}
{"predicted target": "CG17684", "amplicon": "DRSC07724", "activity call": "inactive"}
{"predicted target": "CG17684", "amplicon": "DRSC21166", "activity call": "inactive"}
{"predicted target": "CG17726", "amplicon": "DRSC15255", "activity call": "inactive"}
{"predicted target": "CG13510", "amplicon": "DRSC04152", "activity call": "inactive"}
{"predicted target": "CG32121", "amplicon": "DRSC09265", "activity call": "inactive"}
{"predicted target": "CG14762", "amplicon": "DRSC05073", "activity call": "inactive"}
{"predicted target": "CG14762", "amplicon": "DRSC06496", "activity call": "inactive"}
{"predicted target": "Nep6 (Neprilysin 6)", "amplicon": "DRSC19877", "activity call": "inactive"}
{"predicted target": "CheB38c (Chemosensory protein B 38c)", "amplicon": "DRSC02389", "activity call": "inactive"}
{"predicted target": "Asciz (ASCIZ zinc finger protein)", "amplicon": "DRSC08421", "activity call": "inactive"}
{"predicted target": "CG10474", "amplicon": "DRSC05993", "activity call": "inactive"}
{"predicted target": "sunn", "amplicon": "DRSC21659", "activity call": "inactive"}
